# Measurements as given in the supplement of paper PMC4807443.
# Structures can show the parent of a compound that is named as a salt. The list shows a part of the results. The numbers are fractions of the control, whatever unit the source prints. Most values lie at the level of the controls, where differences are scatter.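 A lentiviral reporter stably expressed in MIN6 mouse insulinoma beta cells uses Pdx1 and Ins1 promoters to drive separate nucleus-targeted fluorescent proteins; automated imaging with Hoechst nuclear stain counted cells. Possible hits were drugs shifting Ins1 promoter signal more than two median absolute deviations from DMSO controls, with Pdx1 activity roughly normal.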
# System: MIN6
# Test: % Pdx1+ Ins1+ (double-positive, mature) cells relative to DMSO control (fold of DMSO control); higher = more mature Ins1 promoter-active cells
# Conditions: 8.5 µM; 48 h; glucose 5 mM
row,Compound,% Pdx1+ Ins1+
1,CCN1C(=O)NC(c2ccccc2)C1=O (stereo not drawn) [Ethotoin],0.894
2,CN1CCC(=C2c3ccccc3CC(=O)c3sccc32)CC1 [Ketotifen fumarate],1.01
3,COc1ccccc1N1CCN(CC(O)COc2cccc3ccccc23)CC1 (stereo not drawn) [Naftopidil dihydrochloride],0.862
4,CN1CCCC(CC2c3ccccc3Sc3ccccc32)C1 (stereo not drawn) [Metixene hydrochloride],0.801
5,CC(C)(Sc1cc(C(C)(C)C)c(O)c(C(C)(C)C)c1)Sc1cc(C(C)(C)C)c(O)c(C(C)(C)C)c1 [Probucol],1.03
6,Cn1ccnc1S [Methimazole],0.813
7,Nc1c(Br)cc(Br)cc1CN[C@H]1CC[C@H](O)CC1 [Ambroxol hydrochloride],0.881
8,CC(C)(Oc1ccc(Cl)cc1)C(=O)O [Clofibric acid],0.907
9,CN(C)CC/C=C1\c2ccccc2CSc2ccccc21 [Dosulepin hydrochloride],0.964
10,CO[C@H]1C[C@H](O[C@H]2[C@H](C)[C@@H](O[C@@H]3O[C@H](C)C[C@H](N(C)C)[C@H]3OC(C)=O)[C@@H](C)C[C@@]3(CO3)C(=O)[C@H](C)[C@@H](OC(C)=O)[C@@H](C)[C@@H](C)OC(=O)[C@@H]2C)O[C@@H](C)[C@@H]1OC(C)=O [Troleandomycin],0.867
11,COc1ccc(-c2ccc(=N)n(CCCC(=O)O)n2)cc1 [Gabazine],1.02
12,Cc1cc(C(=O)NNCc2ccccc2)no1 [Isocarboxazid],0.804
13,CN1C(C(=O)Nc2ccccn2)=C(O)c2sccc2S1(=O)=O [Tenoxicam],0.957
14,Cc1ncc([N+](=O)[O-])n1CC(O)CCl (stereo not drawn) [Ornidazole],1.06
15,COc1cc(/C=C/C(=O)N2CCC=CC2=O)cc(OC)c1OC [Piperlongumine],0.853
16,C=C[C@H]1CN2CC[C@H]1C[C@@H]2[C@@H](O)c1ccnc2ccc(OC)cc12 [Quinidine hydrochloride monohydrate],1.03
17,C[C@]12CC[C@H]3C(=CCc4cc(O)ccc43)[C@@H]1CCC2=O [Equilin],0.899
18,CN(C)CCC=C1c2ccccc2CCc2ccccc21 [Amitryptiline hydrochloride],1.17
19,Cc1[nH]c(=O)c(C#N)cc1-c1ccncc1 [Milrinone],1.07
20,Cn1c(=O)c2[nH]cnc2n(C)c1=O [Aminophylline],0.992
21,CCN(CC)CCOC(=O)C(c1ccccc1)C1CCCCC1 (stereo not drawn) [Drofenine hydrochloride],0.844
22,COc1cc(Cc2cnc(N)nc2N)cc(OC)c1OC [Trimethoprim],1.1
23,CO[C@@]1(NC(=O)Cc2cccs2)C(=O)N2C(C(=O)O)=C(COC(N)=O)CS[C@@H]21 [Cefoxitin sodium salt],1.01
24,CC(=O)c1ccc2c(c1)N(CCCN1CCC(CCO)CC1)c1ccccc1S2 [Piperacetazine],0.928
25,O=C(CCCN1CCC(O)(c2ccc(Br)cc2)CC1)c1ccc(F)cc1 [Bromperidol],0.919

row,Compound,% Pdx1+ Ins1+
1,CCCCC(CC)CN1CN(CC(CC)CCCC)CC(C)(N)C1 (stereo not drawn) [Hexetidine],0.84
2,CC(C)(C)C(=O)OCOC(=O)[C@@H]1N2C(=O)[C@@H](NC(=O)[C@H](N)c3ccccc3)[C@H]2SC1(C)C [Pivampicillin],1
3,O=C1NCN(c2ccccc2)C12CCN(CCCC(c1ccc(F)cc1)c1ccc(F)cc1)CC2 [Fluspirilen],0.763
4,N=C(N)NC(=O)c1nc(Cl)c(N)nc1N [Amiloride hydrochloride dihydrate],1.07
5,CCCCOC(=O)c1ccc(N)cc1 [Butamben],0.876
6,NS(=O)(=O)c1cc2c(cc1Cl)N=CNS2(=O)=O [Chlorothiazide],1.03
7,CN[C@H](CC(C)C)C(=O)N[C@H]1C(=O)N[C@@H](CC(N)=O)C(=O)N[C@H]2C(=O)N[C@H]3C(=O)N[C@H](C(=O)N[C@H](C(=O)O)c4cc(O)cc(O)c4-c4cc3ccc4O)[C@H](O)c3ccc(c(Cl)c3)Oc3cc2cc(c3O[C@@H]2O[C@H](CO)[C@@H](O)[C@H](O)[C@H]2O[C@H]2C[C@](C)(N)[C@H](O)[C@H](C)O2)Oc2ccc(cc2Cl)[C@H]1O [Vancomycin hydrochloride],1.03
8,CC(C)COCC(CN(Cc1ccccc1)c1ccccc1)N1CCCC1 (stereo not drawn) [Bepridil hydrochloride],1
9,NC(=O)c1ncn([C@@H]2O[C@H](CO)[C@@H](O)[C@H]2O)n1 [Ribavirin],0.885
10,CCOC(=O)[C@H](CCc1ccccc1)N[C@@H](C)C(=O)N1[C@H](C(=O)O)C[C@@H]2CCC[C@@H]21 [Ramipril],0.896
11,CCOc1ccc2c(c1)C(C)=CC(C)(C)N2 [Ethoxyquin],0.777
12,NS(=O)(=O)c1cc(C(=O)O)c(NCc2ccco2)cc1Cl [Furosemide],0.847
13,Cc1cc(C2CCCCC2)n(O)c(=O)c1 [Ciclopirox ethanolamine],0.712
14,O=C(c1ccccc1)c1ccc2n1CCC2C(=O)O (stereo not drawn) [Ketorolac tromethamine],0.823
15,CCOC(=O)[C@@](C)(N)Cc1ccc(O)c(O)c1 [Methyldopate hydrochloride],0.755
16,CCN[C@@H]1C[C@H](N)[C@@H](O[C@H]2OC(CN)=CC[C@H]2N)[C@H](O)[C@H]1O[C@H]1OC[C@](C)(O)[C@H](NC)[C@H]1O [Netilmicin sulfate],1.01
17,CN1Cc2c(N)cccc2C(c2ccccc2)C1 (stereo not drawn) [Nomifensine maleate],1.08
18,"c1ccc(CNc2ncnc3nc[nH]c23)cc1 [Aminopurine, 6-benzyl]",1.02
19,COc1ccccc1OCC(O)COC(N)=O (stereo not drawn) [Methocarbamol],1.15
20,Cc1cc(N)c2ccccc2[n+]1CCCCCCCCCC[n+]1c(C)cc(N)c2ccccc21 [Dequalinium dichloride],0.0402
21,N=C(N)NCCN1CCCCCCC1 [Guanethidine sulfate],1.09
22,C#C[C@]1(O)CC[C@H]2[C@@H]3CCC4=CC(=O)CC[C@@H]4[C@H]3CC[C@@]21CC [Norgestrel-(-)-D],0.945
23,CC(CN(C)C)CN1c2ccccc2Sc2ccccc21 (stereo not drawn) [Trimeprazine tartrate],0.998
24,CC1(C)[C@@H](OC(=O)CCC(=O)O)CC[C@]2(C)[C@H]3C(=O)C=C4[C@@H]5C[C@@](C)(C(=O)O)CC[C@]5(C)CC[C@@]4(C)[C@]3(C)CC[C@@H]12 [Carbenoxolone disodium salt],0.96
25,O=C(/C=C/c1ccc(O)c(O)c1)O[C@@H]1C[C@](O)(C(=O)O)C[C@@H](O)[C@H]1O [Chlorogenic acid],0.751

# 5 entries drawn at random from those above, as already listed:
row,Compound,% Pdx1+ Ins1+
6,Cn1ccnc1S [Methimazole],0.813
18,"c1ccc(CNc2ncnc3nc[nH]c23)cc1 [Aminopurine, 6-benzyl]",1.02
24,CC(=O)c1ccc2c(c1)N(CCCN1CCC(CCO)CC1)c1ccccc1S2 [Piperacetazine],0.928
4,CN1CCCC(CC2c3ccccc3Sc3ccccc32)C1 (stereo not drawn) [Metixene hydrochloride],0.801
11,CCOc1ccc2c(c1)C(C)=CC(C)(C)N2 [Ethoxyquin],0.777

# Remaining list, next part.

row,Compound,% Pdx1+ Ins1+
1,C=CCOC(Cn1ccnc1)c1ccc(Cl)cc1Cl (stereo not drawn) [Enilconazole],1.01
2,CC[C@@H](CO)NCCN[C@@H](CC)CO [Ethambutol dihydrochloride],1.2
3,CC(=O)OCC(=O)[C@@]1(OC(C)=O)[C@@H](C)C[C@H]2[C@@H]3C[C@H](F)C4=CC(=O)C=C[C@]4(C)[C@@]3(F)[C@@H](O)C[C@@]21C [Diflorasone Diacetate],0.897
4,CCCOc1ccc(C(=O)OCCN(CC)CC)cc1N [Proparacaine hydrochloride],0.928
5,C=CCSCC1Nc2cc(Cl)c(S(N)(=O)=O)cc2S(=O)(=O)N1 (stereo not drawn) [Althiazide],0.91
6,c1ccc(CN(CC2=NCCN2)c2ccccc2)cc1 [Antazoline hydrochloride],1.12
7,CC(=O)N(CC(O)CN(C(C)=O)c1c(I)c(C(=O)NCC(O)CO)c(I)c(C(=O)NCC(O)CO)c1I)c1c(I)c(C(=O)NCC(O)CO)c(I)c(C(=O)NCC(O)CO)c1I (stereo not drawn) [Iodixanol],0.976
8,CC(C(=O)O)c1ccc(C(=O)c2ccccc2)s1 (stereo not drawn) [Tiaprofenic acid],0.867
9,Cc1ccsc1/C=C/C1=NCCCN1C [Morantel tartrate],1.06
10,CN(C)c1ccc(O)c2c1C[C@H]1C[C@H]3[C@H](N(C)C)C(O)=C(C(N)=O)C(=O)[C@@]3(O)C(O)=C1C2=O [Minocycline hydrochloride],0.963
11,CCN(CC)CCNc1ccc(CO)c2sc3ccccc3c(=O)c12 [Hycanthone],0.746
12,O=C(COc1ccc(Cl)cc1)N1CCN(Cc2ccc3c(c2)OCO3)CC1 [Fipexide hydrochloride],0.996
13,CNC(C)CCC=C(C)C (stereo not drawn) [Isometheptene mucate],0.905
14,CN(Cc1cnc2nc(N)nc(N)c2n1)c1ccc(C(=O)N[C@@H](CCC(=O)O)C(=O)O)cc1 [Methotrexate],0.99
15,"CN(Cc1cnc2nc(N)nc(N)c2n1)c1ccc(C(=O)N[C@@H](CCC(=O)O)C(=O)O)cc1 (racemic) [Amethopterin (R,S)]",0.683
16,CCOC(=O)c1ccc(N)cc1 [Benzocaine],0.865
17,CCN(CC)CCOC(=O)C(c1ccccc1)c1ccccc1 [Adiphenine hydrochloride],1.17
18,OC(CCCN1CCCCC1)(c1ccccc1)c1ccccc1 [Diphenidol hydrochloride],1.09
19,Cc1ccc(S(=O)(=O)NC(=O)NN2CCCCCC2)cc1 [Tolazamide],0.867
20,C[C@]12CC[C@@H]3c4ccc(OS(=O)(=O)O)cc4CC[C@H]3[C@@H]1CCC2=O [Estropipate],0.876
21,CCCCNc1c(C(=O)OCC)c(C)nc2c1cnn2CC [Tracazolate hydrochloride],0.869
22,CCCCC1(COC(=O)CCC(=O)O)C(=O)N(c2ccccc2)N(c2ccccc2)C1=O [Suxibuzone],0.803
23,COc1cc(NC(C)CCCN)c2ncccc2c1 (stereo not drawn) [Primaquine diphosphate],0.824
